The record followed here is US20090253152A1 (OREGON HEALTH AND SCIENCE UNIVERSITY, published 2009).

Results are given in words; binding and its absence hold for the method and conditions named. Binding seen in cells or lysates may run through a third protein. Some entries that bind do so weakly or less than the wild type. Tags and fused reporters may be left off the sequences shown.

The target in test [1] is T1, IGFBP-3 receptor (P4.33) as the construct EGFP:4-33, expressed in Hs578T breast cancer cells (human) (UniProt Q86XT9).
T1 sequence (looked up): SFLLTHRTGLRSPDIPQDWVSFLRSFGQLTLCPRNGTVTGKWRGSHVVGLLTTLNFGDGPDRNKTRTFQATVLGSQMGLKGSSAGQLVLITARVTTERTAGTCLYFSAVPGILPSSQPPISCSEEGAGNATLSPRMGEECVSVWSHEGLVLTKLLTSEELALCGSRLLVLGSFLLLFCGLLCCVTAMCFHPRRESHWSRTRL
Kind of test: co-immunoprecipitation with anti-GFP from Hs578T lysate expressing EGFP:4-33, anti-IGFBP-3 immunoblot.

Test [2] deals with T1, IGFBP-3 receptor (P4.33) as the construct EGFP:4-33, expressed in Hs578T breast cancer cells (human). Briefly: co-immunoprecipitation: lysate of Hs578T cells transfected with EGFP:4-33 incubated with the IGFBP-3 protein, precipitated with anti-GFP, immunoblot with anti-IGFBP-3. For orientation: Immunoblotting shows a protein as a band on a membrane.

On to “IGFBP-3 G56G80G81 triple mutant (I56G, L80G, L81G), FLAG-tagged (Cos-7 or baculovirus expressed) (from UniProt P17936 28-291)”, for which the binding entry in test [1] and in test [2] was “binds” in each case.

With “IGFBP-3 G80G81 double mutant (L80G, L81G), FLAG-tagged (Cos-7 or baculovirus expressed) (from UniProt P17936 28-291)”, the binding entry in test [1] is recorded as “binds”.

For the substance “wild-type full-length human IGFBP-3 with C-terminal FLAG epitope (Cos-7 or baculovirus expressed) (from UniProt P17936 28-291)”, in test [2], the binding entry was “binds”.
